According to US10196604B2, “Mitochondrial inhibitors for use in culturing pluripotent stem cells” (The Board of Trustees of the Leland Stanford Junior …, priority 2014, dated 2019):
Some entries share one result that the patent states for a list of compounds.

Assays:
[1] = system: human embryonic stem cells; assay: Toxicity testing of mitochondrial inhibitors on hES cells (72 hr culture, crystal violet staining); settings: tested from 0.1 mM to 50 mM
[2] = system: SURVIVIN, OCT4 and NANOG; assay: qRT-PCR of the three probed genes together (SURVIVIN, OCT4, NANOG) in hES cells; type: cell-based, human; settings: 1 mM, 72 hours, vs control
Procedure: Total cellular RNA was extracted from cells using TRIzol (Invitrogen) and DNase treated with the DNA-free kit (Ambion, Austin, Tex., http (colon slash slash) www (dot) ambion.com) following manufacturer's directions for stringent conditions. RNA was dialyzed for 30 minutes against milliqwater, 10 mM Tris and 1 mM EDTA adjusted to pH 7.5 with HCL (all from Fisher). cDNA was synthesized using GeneAmp RNA PCR kit from Applied Biosciences (Fisher) and no-RT reactions were performed without reverse transcriptase and RNase inhibitor enzymes. One microgram of RNA was used, following manufacturer's directions. Quantitative real time polymerase chain reaction (qPCR) was performed to determine relative mRNA expression levels. Expression fold changes were calculated using the ΔΔCt method and normalized using the housekeeping gene, β-ACTIN as an internal control. Taqman master mix and gene assays with water only were used as a negative control. mRNA expression assays were analyzed in a triplicate PCR reaction with no-RT negative controls and each experiment was performed at least three independent times. […]
The pluripotency of these cultured human embryonic stem cells were characterized by the marker gene expression as analyzed by Quantitative Reverse Transcriptase PCR (qRT-PCR). […]

For Cc1nnn[nH]1 [Compound 10, 5-methyl-1H-tetrazole], the “nontoxic concentration (no toxicity up to)” value [1] was at most 1 mM.

For Nc1nnn[nH]1 [Compound 7, 1H-tetrazol-5-amine], the “overexpression of at least one of the probed genes” value [2] was “at least 10%” and the “nontoxic concentration (no toxicity up to)” value [1] was at most 1 mM.
